Patent US20130023534A1, “PYRAZOLYL-PYRIMIDINES AS KINASE INHIBITORS” (priority 2010, published 2013)
Counter-ions that a name gives are not always drawn. Some entries share one result that the patent states for a list of compounds.

Sequences of proteins named here, by UniProt entry; tags and fusion partners are left off.
UniProt O43353, whole entry: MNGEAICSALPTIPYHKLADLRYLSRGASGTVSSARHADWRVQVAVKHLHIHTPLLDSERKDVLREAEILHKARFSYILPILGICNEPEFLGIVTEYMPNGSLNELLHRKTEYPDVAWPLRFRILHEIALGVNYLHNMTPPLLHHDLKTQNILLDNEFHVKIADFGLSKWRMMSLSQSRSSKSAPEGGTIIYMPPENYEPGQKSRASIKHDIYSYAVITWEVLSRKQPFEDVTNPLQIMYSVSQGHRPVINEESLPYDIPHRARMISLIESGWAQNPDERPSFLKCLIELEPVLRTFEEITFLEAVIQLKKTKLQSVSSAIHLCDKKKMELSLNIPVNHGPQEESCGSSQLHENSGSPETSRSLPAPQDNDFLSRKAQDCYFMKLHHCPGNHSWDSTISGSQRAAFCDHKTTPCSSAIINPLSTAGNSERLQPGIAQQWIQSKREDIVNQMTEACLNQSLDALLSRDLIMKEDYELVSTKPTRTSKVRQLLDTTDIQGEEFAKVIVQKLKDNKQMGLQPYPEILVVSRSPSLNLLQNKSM

Target: T1, RIPK2 (Homo sapiens, UniProt O43353)
T1 construct: Full length FLAG His tagged RIPK2 was purified from a Baculovirus expression system; FLAG (N); 6His (N); made in house; host or cells: Spodoptera frugiperda (Sf9) insect cells, baculovirus
Assay: Fluorescent polarization based binding assay at the ATP binding pocket of RIPK2
Settings: full length FLAG His tagged RIPK2; competition with fluorescently labeled ATP competitive ligand (5 nM); mean of a minimum of 2 experiments

SMILES | mean pIC50
COc1ccc(Nc2nccc(Nc3cc(C)nn3-c3cccc(C(=O)O)c3)n2)cc1OC.O=C(O)C(F)(F)F [Example 54, 3-{5-[(2-{[3,4-bis(methyloxy)phenyl]amino}-4-pyrimidinyl)amino]-3-methyl-1H-pyrazol-1-yl}benzoic acid trifluoroacetate] | greater than or equal to 6.0
COc1ccc(-n2nccc2Nc2ccnc(Nc3ccc(OC)c(OC)c3)n2)cc1 [Example 49, N^2-[3,4-bis(methyloxy)phenyl]-N^4-{1-[4-(methyloxy)phenyl]-1H-pyrazol-5-yl}-2,4-pyrimidinediamine] | greater than or equal to 6.0
COc1ccc(Nc2nccc(Nc3c(C)c(C)nn3-c3ccc(Cl)cn3)n2)cc1OC [Example 12, N^2-[3,4-bis(methyloxy)phenyl]-N^4-[1-(5-chloro-2-pyridinyl)-3,4-dimethyl-1H-pyrazol-5-yl]-2,4-pyrimidinediamine trifluoroacetate] | greater than or equal to 6.0
Cc1n[nH]c(Nc2ccnc(Nc3ccc4c(c3)CS(=O)(=O)C4)n2)c1C [Example 92, N4-(3,4-dimethyl-1H-pyrazol-5-yl)-N2-(2,2-dioxido-1,3-dihydro-2-benzothien-5-yl)-2,4-pyrimidinediamine hydrochloride] | greater than or equal to 6.0
Cc1[nH]nc(Nc2ccnc(Nc3cccc(S(N)(=O)=O)c3)n2)c1C.Cl [Example 151, 3-({4-[(4,5-dimethyl-1H-pyrazol-3-yl)amino]-2-pyrimidinyl}amino)benzenesulfonamide hydrochloride] | greater than or equal to 6.0
Cc1noc(N(C)c2ccnc(Nc3cccc(S(=O)(=O)C4CCCC4)c3)n2)c1C [Example 165, N2-[3-(CYCLOPENTYLSULFONYL)PHENYL]-N4-(3,4-DIMETHYL-5-ISOXAZOLYL)-N4-METHYL-2,4-PYRIMIDINE-DIAMINE] | greater than or equal to 6.0
COc1cc(Nc2nccc(Nc3c(C)c(C)nn3-c3ccccn3)n2)cc(OC)c1OC [Example 45, N^4-[3,4-dimethyl-1-(2-pyridinyl)-1H-pyrazol-5-yl]-N^2-[3,4,5-tris(methyloxy)phenyl]-2,4-pyrimidinediamine] | greater than or equal to 6.0
COc1cc(Nc2nccc(Nc3c(C)c(C)nn3[C@H]3CCCC[C@@H]3O)n2)cc(OC)c1OC.O=C(O)C(F)(F)F [Example 149, (1S,2S)-2-{3,4-dimethyl-5-[(2-{[3,4,5-tris(methyloxy)phenyl]amino}-4-pyrimidinyl)amino]-1H-pyrazol-1-yl}cyclohexanol trifluoroacetate] | greater than or equal to 6.0
Cc1noc(N(C)c2ccnc(Nc3cccc(S(=O)(=O)C(C)(C)C)c3)n2)c1C [Example 172, N2-[3-[(1,1-dimethylethyl)sulfonyl]-phenyl}-N3-(3,4-dimethyl-5-isoxazol)-N4-methyl-2,4-pyrimidinediamine] | greater than or equal to 6.0
Cc1cc(Nc2nccc(Nc3onc(C)c3C)n2)cc(S(C)(=O)=O)c1 [Example 164, N4-(3,4-DIMETHYL-5-ISOXAZOLYL)-N2-[3-METHYL-5-(METHYLSULFONYL)PHENYL]-2,4-PYRIMIDINE-DIAMINE] | greater than or equal to 6.0
COc1cc(Nc2nccc(N(C)c3[nH]nc(C)c3C)n2)cc(OC)c1OC [Example 5, N4-(3,4-Dimethyl-1H-pyrazol-5-yl)-N4-methyl-N2-[3,4,5-tris(methyloxy)phenyl]-2,4-pyrimidinediamine] | greater than or equal to 6.0
Cc1ccc(Nc2nccc(Nc3n[nH]c(C)c3C)n2)cc1S(=O)(=O)C(C)(C)CO.Cl [Example 114, 2-{[5-({4-[(4,5-dimethyl-1H-pyrazol-3-yl)amino]-2-pyrimidinyl}amino)-2-methylphenyl]sulfonyl}-2-methyl-1-propanol hydrochloride] | greater than or equal to 6.0
Cc1noc(Nc2ccnc(Nc3cccc(S(=O)(=O)C(C)(C)C)c3)n2)c1C [Example 170, N2-[3-[(1,1-dimethylethyl)sulfonyl]phenyl}-N4-(3,4-dimethyl-5-isoxazolyl)-2,4-pyrimidinediamine] | greater than or equal to 6.0
Cc1n[nH]c(Nc2ccnc(Nc3ccc(F)c(S(C)(=O)=O)c3)n2)c1C [Example 6, N^4-(3,4-Dimethyl-1H-pyrazol-5-yl)-N^2-[4-fluoro-3-(methylsulfonyl)phenyl]-2,4-pyrimidinediamine] | greater than or equal to 6.0
COc1cccc(-n2nc(C)c(C)c2Nc2ccnc(Nc3ccc(OC)c(OC)c3)n2)c1 [Example 28, N^2-[3,4-bis(methyloxy)phenyl]-N^4-{3,4-dimethyl-1-[3-(methyloxy)phenyl]-1H-pyrazol-5-yl}-2,4-pyrimidinediamine trifluoroacetate] | greater than or equal to 6.0
COc1cc(Nc2nccc(Nc3n[nH]c(C)c3C)n2)c(C)c(S(C)(=O)=O)c1 [Example 132, N^4-(4,5-dimethyl-1H-pyrazol-3-yl)-N^2-[2-methyl-5-(methyloxy)-3-(methylsulfonyl)phenyl]-2,4-pyrimidinediamine trifluoroacetate] | greater than or equal to 6.0
Cc1ccc(-n2nc(C)cc2Nc2ccnc(Nc3ccc(N4CCN(C)CC4)cc3)n2)cc1 [Example 37, N^4-[3-methyl-1-(4-methylphenyl)-1H-pyrazol-5-yl]-N^2-[4-(4-methyl-1-piperazinyl)phenyl]-2,4-pyrimidinediamine] | greater than or equal to 6.0
Cc1[nH]nc(Nc2ccnc(Nc3cc(C(F)(F)F)cc(S(=O)(=O)C4CCOC4C)c3)n2)c1C (stereo not shown) [Example 150, N^4-(4,5-dimethyl-1H-pyrazol-3-yl)-N^2-[3-[(2-methyltetrahydro-3-furanyl)sulfonyl]-5-(trifluoromethyl)phenyl]-2,4-pyrimidinediamine] | greater than or equal to 6.0
Cc1nn(-c2ccc(Cl)cc2)c(Nc2ccnc(Nc3cccc(S(N)(=O)=O)c3)n2)c1C.O=C(O)C(F)(F)F [Example 34, 3-[(4-{[1-(4-chlorophenyl)-3,4-dimethyl-1H-pyrazol-5-yl]amino}-2-pyrimidinyl)amino]benzenesulfonamide trifluoroacetate] | greater than or equal to 6.0
COc1cc(Nc2nccc(N(C)c3onc(C)c3C)n2)cc(S(=O)(=O)C2CCOCC2)c1 [Example 178, N4-(3,4-dimethyl-5-isoxazolyl)-N4-methyl-N2-[3-(methyloxy)-5-(tetrahydro-2H-pyran-4-ylsulfonyl)phenyl]-2,4-pyrimidinediamine] | greater than or equal to 6.0
Cc1nn(C)c(Nc2ccnc(Nc3cccc(C(C)(C)C#N)c3)n2)c1C [Example 77, 2-methyl-2-[3-({4-[(1,3,4-trimethyl-1H-pyrazol-5-yl)amino]-2-pyrimidinyl}amino)phenyl]propane-nitrile] | greater than or equal to 6.0
COc1ccc(Nc2nccc(Nc3cc(C)nn3-c3cccc(Cl)c3)n2)cc1OC.O=C(O)C(F)(F)F [Example 51, N^2-[3,4-bis(methyloxy)phenyl]-N^4-[1-(3-chlorophenyl)-3-methyl-1H-pyrazol-5-yl]-2,4-pyrimidinediamine trifluoroacetate] | greater than or equal to 6.0
